Reference: PubChem BioAssay AID493014 (National Center for Advancing Translational Sciences (NCATS), 2011)
The list shows a part of the results. Shown are side measurements of this screen, not its main read-out; they come without a call. The list favours compounds with an active or inconclusive main result. Potencies come from curve fits of mixed quality, noted in brackets.

Experiment: qHTS Assay to Find Inhibitors of Chronic Active B-Cell Receptor Signaling
Settings: ABC-DLBCL IkBa-CBG/CBR reporter, luminescence ratio (green luciferase fused to IkBa over red control in TMD8 lymphoma cells), 4 h
How it was run: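 TMD8 ABC-DLBCL cells carrying doxycycline-inducible green luciferase fused to IkappaBalpha plus unfused red luciferase were exposed to compounds (up to 46 uM) for 4 hrs at 37C. Activity came from the overlap-corrected green/red luminescence ratio.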

[1] = measured here: CBR red luminescence, cell number
[2] = measured here: IkBa-CBG green luminescence

For COc1ccc2c(c1)C(C)=CC(C)(C)N2S(=O)(=O)c1ccc(Br)cc1, the AC50 [1] was 3.98 µM [rising, full curve] and the AC50 [2] was 3.98 µM [falling, full curve].
With CC(=O)Nc1cccc(NC(=O)CSc2ccc(-c3ccccn3)nn2)c1 the AC50 [1] was 5.62 µM [rising, partial curve, poor fit].
For Cc1ccc(S(=O)(=O)Nc2c(O)c3ccccc3oc2=O)cc1C, the AC50 [1] was 4.47 µM [falling, partial curve, poor fit].
For Cc1nc2ncnn2c(C)c1CCC(=O)NCc1ccc2c(c1)OCO2, the AC50 [1] was 1.41 µM [rising, full curve, poor fit].
In the case of O=C(CSc1nccn(-c2ccc(F)c(F)c2)c1=O)NC1CCCC1, the AC50 [1] is reported as 29.1 µM [falling, single point].
In the case of Nc1nc(-c2c(Cl)cccc2Cl)no1, the AC50 [1] is reported as 0.1 µM [rising, full curve, poor fit].
With Cc1c(N=CN2CCOCC2)c(=O)n(C)c(=O)n1C the AC50 [1] was 5.17 µM [rising, full curve, poor fit].
For O=c1c2ccccc2nc2n1C(CBr)CN2 (stereo not given), the AC50 [1] was 35.5 µM [rising, partial curve, poor fit].
In the case of O=C1NC(=S)S/C1=C\C=C\c1ccc([N+](=O)[O-])o1, the AC50 [1] is reported as 35.5 µM [falling, single point] and the AC50 [2] is reported as 35.5 µM [rising, single point].
For Nc1nc(/C=C/c2cccnc2)nc(-c2ccccc2O)n1, the AC50 [2] was 0.562 µM [rising, full curve, poor fit].
With OC(COCC(F)(F)C(F)(F)C(F)(F)C(F)F)Cn1c2ccc(Cl)cc2c2cc(Cl)ccc21 (stereo not given) the AC50 [1] was 23.1 µM [falling, single point] and the AC50 [2] was 6.51 µM [rising, partial curve, poor fit].
With CC(=O)c1c(C)[nH]c(C2=NNC(=NC(C)(C)C)SC2)c1C the AC50 [1] was 31.6 µM [falling, single point].
In the case of Cc1ccccc1OCC(=O)Nc1cc(S(=O)(=O)N2CCOCC2)ccc1N1CCCC1, the AC50 [1] is reported as 1.64 µM [falling, full curve].
For Cc1cc(C)n2ncc(/C(N)=N/OC(=O)Nc3ccc(Cl)cc3)c2n1, the AC50 [1] was 8.91 µM [rising, partial curve, poor fit].
With Cc1ccc2c(C)ccc(O)c2n1 the AC50 [1] was 9.2 µM [rising, partial curve].
With CN1C(=O)NC(c2ccc([N+](=O)[O-])cc2)C2=C1CC(C)(C)CC2=O (stereo not given) the AC50 [1] was 31.6 µM [rising, single point].
With CCc1cc(C(=O)NNC(=S)Nc2cc(C)ccc2C)cs1 the AC50 [1] was 0.82 µM [falling, full curve].
